Measurements reported in patent US9260504B2 (University of Miami, priority 2008, dated 2016).

Test system: SK-Hep-1 human hepatocellular cancer
Assay: SK-Hep-1 human hepatocellular cancer xenografts in nude mice
Type: in vivo
Settings: vs control; 10 μg/day s.c., day 135
Description: SK-Hep-1 cancers were transplanted s.c. into both flank areas of 66 female nude mice, and allowed to grow for 47 days before starting the treatment with GH-RH antagonists. The mice were randomly assigned into 4 experimental groups with 8 animals in each group and received single daily injections for 135 days as follows: 1. Control (vehicle solution); 2. JMR-132 (10 μg/day s.c.); 3. Peptide 1109 (5 μg/day s.c.); 4. Peptide 1109 (10 μg/day s.c.). Tumor volumes were measured once a week. The experiment was ended on day 135 by sacrificing the mice under Isoflurane anesthesia. Resulting tumors were cleaned, weighed, and snap-frozen until further analyses. Statistical analyses of the measurement results were done by two-tailed t-test, p<0.05 being considered significant. Data are presented as the means±S.E.

Row | Substance | Statistical significance of the inhibitory effect
1 | [PhAc^0-Tyr^1, D-Arg^2, Cpa^6, Ala^8, Har^9, Tyr(Me)^10, His^11, Abu^15, His^20, Nle^27, D-Arg^28, Har^29]hGH-RH(1-29)NH2 [JMR-132, reference compound] | not significant
2 | [PhAc^0-Tyr^1, D-Arg^2, Cpa^6, Ala^8, Har^9, Tyr(Me)^10, His^11, Abu^15, Glu^17, His^20, Nle^27, D-Arg^28, Har^29]hGH-RH(1-29)NH2 [Peptide 1109] | statistically significant
